Laboratory results reported in patent US20040180819A1, “Characterization of a membrane estrogen receptor” (priority 2001, published 2004).
At least one compound was matched to its structure with a doubt left.

How the values were obtained:
ER (S2) = biological target: T1, ER (S2) (Rattus norvegicus, UniProt P06211); experiment: Competition radioligand binding with [125I]-16α-iodo-E2, D12 cytosolic (S2) fraction; settings: All compounds tested at a concentration of 100 nM
T1 construct: The supernatant obtained following the high speed spin was labeled S2 (cytosol); endogenous in cells; host or cells: D12 (rat E18 hypothalamic, mostly endothelial) cells, S2 cytosolic extract
T1 sequence (P06211 1-600): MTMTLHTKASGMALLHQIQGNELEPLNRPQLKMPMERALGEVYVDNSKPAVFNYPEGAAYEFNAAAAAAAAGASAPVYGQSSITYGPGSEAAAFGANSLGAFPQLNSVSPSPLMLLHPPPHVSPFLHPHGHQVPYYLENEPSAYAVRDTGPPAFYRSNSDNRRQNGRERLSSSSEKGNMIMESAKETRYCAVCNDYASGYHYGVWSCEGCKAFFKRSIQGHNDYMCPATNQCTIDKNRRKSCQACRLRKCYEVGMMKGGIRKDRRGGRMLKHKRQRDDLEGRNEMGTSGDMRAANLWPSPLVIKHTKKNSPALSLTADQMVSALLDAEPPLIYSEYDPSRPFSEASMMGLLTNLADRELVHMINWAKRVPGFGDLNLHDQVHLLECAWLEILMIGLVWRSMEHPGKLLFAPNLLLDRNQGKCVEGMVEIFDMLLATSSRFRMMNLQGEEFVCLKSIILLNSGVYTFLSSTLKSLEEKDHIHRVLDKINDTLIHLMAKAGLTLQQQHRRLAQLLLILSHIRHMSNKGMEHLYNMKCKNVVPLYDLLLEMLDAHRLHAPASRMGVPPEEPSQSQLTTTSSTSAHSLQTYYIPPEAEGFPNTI

mER (P2) = experiment: Competition radioligand binding with [125I]-16α-iodo-E2, D12 membrane (P2) fraction; design: species or system rat; settings: All compounds tested at a concentration of 100 nM

Row | SMILES | ER (S2): competition for [125I]-16α-iodo-E2 binding (ER (S2)) | mER (P2): competition for [125I]-16α-iodo-E2 binding (mER (P2))
1 | CC(=O)[C@H]1CC[C@H]2[C@@H]3CC[C@H]4C[C@H](O)CC[C@]4(C)[C@H]3CC[C@]12C [Allopregnenolone] | − | −
2 | C[C@]12CC[C@H](O)CC1=CC[C@@H]1[C@@H]2CC[C@]2(C)C(=O)CC[C@@H]12 [DHEA] | − | −
